Some of these results come from one statement about several compounds together.
biological target: T1, LRRK2 (Wt) and LRRK2 (G2019) (Homo sapiens, UniProt Q5S007); experiment: TR-FRET LanthaScreen Eu Kinase Binding Assay, LRRK2; conditions: wt human LRRK2 or G2019S human LRRK2, catalytic site; one bin printed for both; read-out: IC50, inhibitory activity toward LRRK2 (Wt) and LRRK2 (G2019)
T1 construct: fused on or other part: GST tag, inferred from the Eu-Anti-GST antibody used for detection

Protein sequences, listed by entry. Tags and fused reporters are not part of them. Lines headed by an entry give the natural chain unless they say otherwise; changes in a name come on top.
UniProt Q5S007: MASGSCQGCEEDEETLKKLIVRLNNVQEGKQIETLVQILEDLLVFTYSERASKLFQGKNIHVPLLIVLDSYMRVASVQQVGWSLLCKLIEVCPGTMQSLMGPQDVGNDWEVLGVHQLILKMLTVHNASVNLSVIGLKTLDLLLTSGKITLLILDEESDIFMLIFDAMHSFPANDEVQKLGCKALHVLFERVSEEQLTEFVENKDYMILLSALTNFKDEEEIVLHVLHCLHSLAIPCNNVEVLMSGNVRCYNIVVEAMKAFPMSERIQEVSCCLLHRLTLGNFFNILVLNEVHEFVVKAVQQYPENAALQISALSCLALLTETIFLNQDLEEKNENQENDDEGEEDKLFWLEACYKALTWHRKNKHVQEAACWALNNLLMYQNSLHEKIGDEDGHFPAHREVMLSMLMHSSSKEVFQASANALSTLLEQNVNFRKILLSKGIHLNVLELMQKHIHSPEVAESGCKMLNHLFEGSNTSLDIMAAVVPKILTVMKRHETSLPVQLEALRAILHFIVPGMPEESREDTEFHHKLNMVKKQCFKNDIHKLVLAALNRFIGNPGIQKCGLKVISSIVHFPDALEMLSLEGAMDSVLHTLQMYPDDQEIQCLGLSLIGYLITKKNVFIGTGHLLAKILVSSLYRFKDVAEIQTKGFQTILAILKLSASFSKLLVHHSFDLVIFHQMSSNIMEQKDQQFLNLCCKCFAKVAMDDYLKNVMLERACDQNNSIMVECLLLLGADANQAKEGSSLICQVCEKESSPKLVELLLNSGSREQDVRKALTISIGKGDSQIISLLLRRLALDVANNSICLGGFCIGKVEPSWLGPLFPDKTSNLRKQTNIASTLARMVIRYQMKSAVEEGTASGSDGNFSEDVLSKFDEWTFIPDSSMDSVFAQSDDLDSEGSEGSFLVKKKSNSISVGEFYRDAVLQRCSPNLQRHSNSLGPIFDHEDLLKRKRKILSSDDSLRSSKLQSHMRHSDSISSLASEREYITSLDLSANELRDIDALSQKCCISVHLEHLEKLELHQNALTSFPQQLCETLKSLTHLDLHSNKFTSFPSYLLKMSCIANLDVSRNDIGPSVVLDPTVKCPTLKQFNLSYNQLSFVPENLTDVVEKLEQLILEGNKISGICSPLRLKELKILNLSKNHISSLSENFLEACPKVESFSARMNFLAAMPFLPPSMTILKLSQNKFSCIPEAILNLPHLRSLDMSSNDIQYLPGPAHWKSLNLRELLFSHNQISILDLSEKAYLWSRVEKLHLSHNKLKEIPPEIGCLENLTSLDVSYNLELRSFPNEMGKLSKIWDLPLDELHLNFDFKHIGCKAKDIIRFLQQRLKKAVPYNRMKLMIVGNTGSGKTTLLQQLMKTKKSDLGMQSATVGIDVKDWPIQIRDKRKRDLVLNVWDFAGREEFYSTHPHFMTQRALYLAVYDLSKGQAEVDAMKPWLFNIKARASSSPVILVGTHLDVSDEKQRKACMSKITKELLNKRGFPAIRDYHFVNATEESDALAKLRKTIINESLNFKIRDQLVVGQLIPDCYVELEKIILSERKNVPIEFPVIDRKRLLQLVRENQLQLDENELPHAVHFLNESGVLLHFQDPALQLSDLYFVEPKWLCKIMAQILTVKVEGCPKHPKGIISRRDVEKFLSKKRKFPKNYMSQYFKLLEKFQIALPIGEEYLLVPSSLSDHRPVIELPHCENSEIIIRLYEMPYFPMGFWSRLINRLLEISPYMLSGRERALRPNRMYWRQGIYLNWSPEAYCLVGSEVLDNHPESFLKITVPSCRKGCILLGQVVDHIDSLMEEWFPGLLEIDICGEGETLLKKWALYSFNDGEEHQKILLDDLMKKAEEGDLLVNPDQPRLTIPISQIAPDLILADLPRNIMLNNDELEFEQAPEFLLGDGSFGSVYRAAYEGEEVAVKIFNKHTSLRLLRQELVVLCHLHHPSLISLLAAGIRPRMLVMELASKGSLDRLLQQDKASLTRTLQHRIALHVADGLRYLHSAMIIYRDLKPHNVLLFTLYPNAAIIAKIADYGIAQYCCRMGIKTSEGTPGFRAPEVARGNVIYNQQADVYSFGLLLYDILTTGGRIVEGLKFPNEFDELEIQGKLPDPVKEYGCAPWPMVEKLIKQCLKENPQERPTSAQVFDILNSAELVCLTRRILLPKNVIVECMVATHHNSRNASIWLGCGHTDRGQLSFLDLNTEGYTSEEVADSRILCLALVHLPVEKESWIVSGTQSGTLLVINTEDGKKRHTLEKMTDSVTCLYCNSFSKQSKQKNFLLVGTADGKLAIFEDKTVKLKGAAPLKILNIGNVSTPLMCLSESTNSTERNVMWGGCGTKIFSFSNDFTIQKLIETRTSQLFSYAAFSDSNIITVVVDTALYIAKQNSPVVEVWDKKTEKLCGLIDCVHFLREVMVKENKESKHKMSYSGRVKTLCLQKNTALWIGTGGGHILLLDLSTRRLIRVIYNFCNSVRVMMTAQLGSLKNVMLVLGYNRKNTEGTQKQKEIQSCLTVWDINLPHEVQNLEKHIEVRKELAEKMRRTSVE

SMILES | IC50
Nc1ncc2c(n1)N=C(c1c(F)cccc1F)Nc1c[nH]nc1-2 [Compound 218, 5-(2,6-difluorophenyl)-2,4-dihydropyrazolo[4,3-d]pyrimido[5,4-f][1,3]diazepin-8-amine] | < 10 nM
Fc1cc2c(cc1OC1CCOCC1)N=C(c1c(F)cccc1F)Nc1c[nH]nc1-2 [Compound 220, 5-(2,6-difluorophenyl)-9-fluoro-8-((tetrahydro-2H-pyran-4-yl)oxy)-2,4-dihydrobenzo[d]pyrazolo[3,4-f][1,3]diazepine] | < 10 nM
Fc1cc2c(cc1OC1CCOCC1)N=C(c1c(Cl)cccc1Cl)Nc1c[nH]nc1-2 [Compound 222, 5-(2,6-dichlorophenyl)-9-fluoro-8-((tetrahydro-2H-pyran-4-yl)oxy)-2,4-dihydrobenzo[d]pyrazolo[3,4-f][1,3]diazepine] | < 10 nM
Fc1cc2c(cc1OC1CCOCC1)N=C(c1c(F)cccc1C(F)(F)F)Nc1c[nH]nc1-2 [Compound 223, 9-fluoro-5-(2-fluoro-6-(trifluoromethyl)phenyl)-8-((tetrahydro-2H-pyran-4-yl)oxy)-2,4-dihydrobenzo[d]pyrazolo[3,4-f][1,3]diazepine] | < 10 nM
Fc1cc2c(cc1-c1cccnn1)N=C(c1c(F)cccc1F)Nc1c[nH]nc1-2 [Compound 225, 5-(2,6-difluorophenyl)-9-fluoro-8-(pyridazin-3-yl)-2,4-dihydrobenzo[d]pyrazolo[3,4-f][1,3]diazepine] | < 10 nM
Fc1cc2c(cc1-c1ccnnc1)N=C(c1c(F)cccc1F)Nc1c[nH]nc1-2 [Compound 226, 5-(2,6-difluorophenyl)-9-fluoro-8-(pyridazin-4-yl)-2,4-dihydrobenzo[d]pyrazolo[3,4-f][1,3]diazepine] | < 10 nM
Fc1cc2c(cc1-c1cccnn1)N=C(c1c(F)cccc1Cl)Nc1c[nH]nc1-2 [Compound 228, 5-(2-chloro-6-fluorophenyl)-9-fluoro-8-(pyridazin-3-yl)-2,4-dihydrobenzo[d]pyrazolo[3,4-f][1,3]diazepine] | < 10 nM
Fc1cc2c(cc1-c1ccccc1)N=C(c1c(F)cccc1F)Nc1c[nH]nc1-2 [Compound 231, 5-(2,6-difluorophenyl)-9-fluoro-8-phenyl-2,4-dihydrobenzo[d]pyrazolo[3,4-f][1,3]diazepine] | < 10 nM
Fc1ccccc1-c1ccc2c(c1)N=C(c1c(Cl)cccc1Cl)Nc1c[nH]nc1-2 [Compound 236, 5-(2,6-dichlorophenyl)-8-(2-fluorophenyl)-2,4-dihydrobenzo[d]pyrazolo[3,4-f][1,3]diazepine] | < 10 nM
Fc1ccc(-c2ccc3c(c2)N=C(c2c(F)cccc2F)Nc2c[nH]nc2-3)cc1 [Compound 237, 5-(2,6-difluorophenyl)-8-(4-fluorophenyl)-2,4-dihydrobenzo[d]pyrazolo[3,4-f][1,3]diazepine] | < 10 nM
Fc1ccc(-c2ccc3c(c2)N=C(c2c(F)cccc2Cl)Nc2c[nH]nc2-3)cc1 [Compound 238, 5-(2-chloro-6-fluorophenyl)-8-(4-fluorophenyl)-2,4-dihydrobenzo[d]pyrazolo[3,4-f][1,3]diazepine] | < 10 nM
CCC(C)Oc1cc2c(cc1F)-c1n[nH]cc1N=C(c1c(F)cccc1Cl)N2 (centres unmarked) [Compound 239, 8-(sec-butoxy)-5-(2-chloro-6-fluorophenyl)-9-fluoro-2,6-dihydrobenzo[d]pyrazolo[3,4-f][1,3]diazepine] | < 10 nM
Fc1cccc(-c2ccc3c(c2)N=C(c2c(F)cccc2F)Nc2c[nH]nc2-3)c1 [Compound 240, 5-(2,6-difluorophenyl)-8-(3-fluorophenyl)-2,4-dihydrobenzo[d]pyrazolo[3,4-f][1,3]diazepine] | < 10 nM
Fc1cccc(-c2ccc3c(c2)N=C(c2c(F)cccc2Cl)Nc2c[nH]nc2-3)c1 [Compound 241, 5-(2-chloro-6-fluorophenyl)-8-(3-fluorophenyl)-2,4-dihydrobenzo[d]pyrazolo[3,4-f][1,3]diazepine] | < 10 nM
Fc1ccc(-c2ccc3c(c2)N=C(c2c(Cl)cccc2Cl)Nc2c[nH]nc2-3)cc1 [Compound 242, 5-(2,6-dichlorophenyl)-8-(4-fluorophenyl)-2,4-dihydrobenzo[d]pyrazolo[3,4-f][1,3]diazepine] | < 10 nM
CC[C@H](C)Oc1cc2c(cc1F)-c1n[nH]cc1N=C(c1c(F)cccc1Cl)N2 [Compound 247, (S)-8-(sec-butoxy)-5-(2-chloro-6-fluorophenyl)-9-fluoro-2,6-dihydrobenzo[d]pyrazolo[3,4-f][1,3]diazepine] | < 10 nM
CC[C@@H](C)Oc1cc2c(cc1F)-c1n[nH]cc1N=C(c1c(F)cccc1Cl)N2 [Compound 248, (R)-8-(sec-butoxy)-5-(2-chloro-6-fluorophenyl)-9-fluoro-2,6-dihydrobenzo[d]pyrazolo[3,4-f][1,3]diazepine] | < 10 nM
